# This is one part of the list. These are further read-outs of the screen, such as a control signal, another cell line or another target. No call is given for them. Most of these compounds were active or inconclusive in the main read-out, so they are no random draw. Potencies come from curve fits of mixed quality, noted in brackets.
# Experiment: qHTS Assay for Lipid Storage Modulators in Drosophila S3 Cells;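 for cell number change: cells counted by Cell Tracker Red CMTPX staining in the red channel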
# Settings: BODIPY lipid droplet fluorescence, 18-24 h; for cell number change: measured here: cell count max response, cells fed with added oleic acid
# Outline: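 Laser-scanning cytometry quantifies lipid droplet accumulation (500–530 nm total intensity; droplet/cell object ratio) in oleic acid-fed (400 uM added) Drosophila S3 cells treated with a concentration series. 20 uM Triacsin C defined 100% inhibition.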
# [1] = measured here: lipid fluorescence (Fed channel) AC50, cells fed with added oleic acid
# [2] = measured here: cell number channel AC50, cells fed with added oleic acid
SMILES,cell number change [%],AC50 [1],AC50 [2]
CC(C)Cc1cc(C(=O)N(C)C2CCCN(Cc3ccccc3F)C2)n(C)n1 (stereo not drawn),14.7,"29.1 µM [rising, single point]",–
CC(C)CN1C(=O)C(=O)N(CC(=O)NCc2ccc3c(c2)OCO3)C1=O,3.33,–,–
NC(=O)NC(CC(=O)NNC(=O)c1ccccn1)c1ccc(Cl)cc1 (stereo not drawn),-1.81,–,–
C/C(=N\NC(=O)c1cccc(Cl)c1)C1C(=O)c2ccccc2C1=O,–,–,"0.0291 µM [rising, full curve, poor fit]"
O=C(CC1S/C(=N/N=C2CCCCCC2)NC1=O)Nc1ccccc1C(F)(F)F (stereo not drawn),-38.1,–,"20.6 µM [falling, partial curve, poor fit]"
Cc1ccc(C)c(NS(=O)(=O)c2ccc(-c3cnc(C4CC4)o3)cc2)c1,-2.06,"18.4 µM [falling, single point]",–
O=C(OCC(=O)C12CC3CC(CC(C3)C1)C2)c1cccnc1Cl,-16.5,"20.6 µM [falling, single point]",–
COc1ccc(/C=N/n2cnc3c([nH]c4ccc(C)cc43)c2=O)cc1CN1CCCC1,-47.6,"29.1 µM [falling, single point]","29.1 µM [falling, single point]"
O=C(COC(=O)c1ccccn1)NCc1ccccc1,-32.6,"29.1 µM [falling, single point]","18.4 µM [falling, single point]"
CC(C)Cn1c(SCC(=O)N2CCN(S(=O)(=O)c3ccccc3)CC2)nc2ccccc21,–,"32.6 µM [falling, single point]",–
COc1ccccc1/C=N/NC(=O)C(C)Cn1cnc2ccccc21 (stereo not drawn),11.2,"13 µM [rising, partial curve]",–
CC(C)OCCCNC(=O)c1ccncc1,2.79,–,–
COc1cccc2cc(C(=O)C3=C(O)C(=O)N(CCN4CCOCC4)C3c3ccc(C(C)(C)C)cc3)oc12 (stereo not drawn),-8.85,"0.58 µM [rising, single point]",–
Cc1ccc(-n2c(SCC(=O)Nc3ccc(Cl)cc3)nc(O)cc2=O)cc1,-7.63,"29.1 µM [rising, single point]",–
O=C(CNc1cccc(C(F)(F)F)c1)N/N=C/C1CCCCC1,-35.7,–,"9.2 µM [falling, partial curve]"
CC1CCC(NC(=O)C2CCN(C(=O)Nc3ccccc3)CC2)CC1 (stereo not drawn),-2.39,"6.51 µM [falling, single point]",–
Cc1cccc(C(=O)N2CCN(CCNC(=O)C(=O)Nc3ccc(F)cc3)CC2)c1,14.8,–,–
O=C(CSc1nc2ccccc2c(=O)n1-c1ccccc1F)Nc1ccc2c(c1)CCC2,-37.4,"6.51 µM [rising, single point]","6.51 µM [rising, single point]"

# Some of the entries above in a different format:
SMILES | cell number change [%] | AC50 [1] | AC50 [2]
NC(=O)NC(CC(=O)NNC(=O)c1ccccn1)c1ccc(Cl)cc1 (stereo not drawn) | -1.81 | – | –
C/C(=N\NC(=O)c1cccc(Cl)c1)C1C(=O)c2ccccc2C1=O | – | – | 0.0291 µM [rising, full curve, poor fit]
